PubChem BioAssay AID1224830, NIAID, 2016

Purpose: 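Regulators of TLR4 signalling towards TNF-alpha in macrophage-like cells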 (primary screen)
Cells: human THP-1 monocytic leukaemia cells, TNF dual-luciferase reporter clone, PMA-differentiated to macrophage-like cells
Reagent: siRNA pool against human genes, 50 nM
Timing: LPS for 4 h, given about 3 days after siRNA transfection
Conditions: bacterial LPS (TLR4 ligand), 10 ng/ml
Read-out: 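TNF firefly reporter luminescence divided by renilla, normalised to the plate median, then turned into a robust z-score for each replicate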
Reading the numbers: TNF reporter robust z-score: higher = stronger TNF reporter response to LPS
Call rule: 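Each well counts as active if its z-score is over 2.8 or under -1.5; controls are left without a call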
The deposit covers about 18,000 reagents; shown is an unselected part. About 2,900 of all reagents (16%) were called active. 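Calls are made per well; low scores hint the gene aids the LPS response, high scores that it dampens it.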 A number with no mark means an inactive call. Repeated entries: four replicate wells of each siRNA pool.

For GLIS3, the entry reads TNF reporter robust z-score -0.84.
GLIS3 scored TNF reporter robust z-score 0.89.
GLIS3 scored TNF reporter robust z-score 0.13.
For GLIS3, the entry reads TNF reporter robust z-score 0.24.
Against FRAT1, the values are TNF reporter robust z-score -1.64 (active).
For FRAT1 the deposit lists TNF reporter robust z-score 0.06.
Silencing of FRAT1 gave: TNF reporter robust z-score -0.72.
FRAT1 scored TNF reporter robust z-score 0.91.
Silencing of LGALS8 resulted in: TNF reporter robust z-score -0.32.
Against LGALS8, the values are TNF reporter robust z-score 0.88.
LGALS8 scored TNF reporter robust z-score -0.25.
Knock-down of LGALS8 came out at: TNF reporter robust z-score -0.39.
SHH scored TNF reporter robust z-score -0.56.
SHH gave TNF reporter robust z-score 4.18 (active).
For SHH, the values are TNF reporter robust z-score 0.84.
SHH gave TNF reporter robust z-score -0.1.
Against RRP9, the entry reads TNF reporter robust z-score -0.45.
Knock-down of RRP9 resulted in: TNF reporter robust z-score -1.52 (active).
Silencing of RRP9 resulted in: TNF reporter robust z-score -0.27.
RRP9 showed TNF reporter robust z-score -0.67.
With knock-down of PRXL2B, the record shows TNF reporter robust z-score -1.02.
PRXL2B scored TNF reporter robust z-score 0.02.
After knock-down of PRXL2B the results were TNF reporter robust z-score 0.39.
Silencing of PRXL2B resulted in: TNF reporter robust z-score -0.53.
For CRIM1, the values are TNF reporter robust z-score 0.73.
Knock-down of CRIM1 resulted in: TNF reporter robust z-score 0.89.
CRIM1 showed TNF reporter robust z-score 0.18.
CRIM1 gave TNF reporter robust z-score 0.34.
Silencing of CXXC1 resulted in: TNF reporter robust z-score 0.06.
With knock-down of CXXC1 the results were TNF reporter robust z-score -1.52 (active).
Against CXXC1, the entry reads TNF reporter robust z-score -1.24.
After knock-down of CXXC1, the record shows TNF reporter robust z-score 2.09.

Reformatted: entries from further up
gene symbol | TNF reporter robust z-score
LGALS8 | -0.32
LGALS8 | 0.88
LGALS8 | -0.25
LGALS8 | -0.39
